Data on 1 molecule can be found in patent US20220153792A1 (INSTITUTE FOR RESEARCH IN BIOMEDICINE, published 2022).

Sequences of proteins named here, by UniProt entry; tags and fusion partners are left off. A change or cut given only in a name is not applied to a line headed by its entry.
UniProt P09429: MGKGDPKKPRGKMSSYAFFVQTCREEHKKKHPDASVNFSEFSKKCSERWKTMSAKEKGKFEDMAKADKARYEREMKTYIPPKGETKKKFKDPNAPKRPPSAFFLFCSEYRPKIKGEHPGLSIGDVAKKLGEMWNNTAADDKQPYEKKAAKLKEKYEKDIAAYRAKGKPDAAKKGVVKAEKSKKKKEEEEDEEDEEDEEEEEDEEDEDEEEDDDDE

No constants are given. Whether binding was seen depends on the method and setting. Some entries that bind do so weakly or less than the wild type.

For this assay, the target named is histidine tagged HMGB1 (High-Mobility-Group-Protein 1) (Homo sapiens (Human)) (UniProt P09429). The experiment in a line: MST.

ERWIH (Last five residues of HBP08 (ERWIH)) [Pentapept-2]: the binding result is listed as “binds”.
